Source: PMC10799895
Results are given in words; binding and its absence hold for the method and conditions named. For part of these data: Binding seen in cells or lysates may run through a third protein. Some results given as binding are weak or reduced against the parent protein; the word gives no strength. For part of these data: Sequences can lack the tags named with a protein.

Experiments:
ATG14-HA = ATG14-HA (UniProt Q6ZNE5); experiment: co-IP
[1] = biological target: strep(2x)-flag-hATG14 (human) (UniProt Q6ZNE5)
M-Flag (SARS-CoV-2) = M-Flag (SARS-CoV-2) (UniProt P0DTC5); experiment: co-IP

B1: STX18-HA (protein, UniProt Q9P2W9 1-335)
chain: MAVDITLLFRASVKTVKTRNKALGVAVGGGVDGSRDELFRRSPRPKGDFSSRAREVISHIGKLRDFLLEHRKDYINAYSHTMSEYGRMTDTERDQIDQDAQIFMRTCSEAIQQLRTEAHKEIHSQQVKEHRTAVLDFIEDYLKRVCKLYSEQRAIRVKRVVDKKRLSKLEPEPNTKTRESTSSEKVSQSPSKDSEENPATEERPEKILAETQPELGTWGDGKGEDELSPEEIQMFEQENQRLIGEMNSLFDEVRQIEGRVVEISRLQEIFTEKVLQQEAEIDSIHQLVVGATENIKEGNEDIREAIKNNAGFRVWILFFLVMCSFSLLFLDWYDS
Question: B1 was tested. Which binding (ATG14-HA) did it give?
Answer: The binding was “binds”.

B2: STX18-Flag (protein, UniProt Q9P2W9 1-335)
chain: MAVDITLLFRASVKTVKTRNKALGVAVGGGVDGSRDELFRRSPRPKGDFSSRAREVISHIGKLRDFLLEHRKDYINAYSHTMSEYGRMTDTERDQIDQDAQIFMRTCSEAIQQLRTEAHKEIHSQQVKEHRTAVLDFIEDYLKRVCKLYSEQRAIRVKRVVDKKRLSKLEPEPNTKTRESTSSEKVSQSPSKDSEENPATEERPEKILAETQPELGTWGDGKGEDELSPEEIQMFEQENQRLIGEMNSLFDEVRQIEGRVVEISRLQEIFTEKVLQQEAEIDSIHQLVVGATENIKEGNEDIREAIKNNAGFRVWILFFLVMCSFSLLFLDWYDS
Question: With B2 as the binder, how does the binding [1] read?
Answer: Its binding is “binds”.

B3: endogenous STX18 (protein, UniProt Q9P2W9 1-335)
chain: MAVDITLLFRASVKTVKTRNKALGVAVGGGVDGSRDELFRRSPRPKGDFSSRAREVISHIGKLRDFLLEHRKDYINAYSHTMSEYGRMTDTERDQIDQDAQIFMRTCSEAIQQLRTEAHKEIHSQQVKEHRTAVLDFIEDYLKRVCKLYSEQRAIRVKRVVDKKRLSKLEPEPNTKTRESTSSEKVSQSPSKDSEENPATEERPEKILAETQPELGTWGDGKGEDELSPEEIQMFEQENQRLIGEMNSLFDEVRQIEGRVVEISRLQEIFTEKVLQQEAEIDSIHQLVVGATENIKEGNEDIREAIKNNAGFRVWILFFLVMCSFSLLFLDWYDS
Question: For B3, which binding (M-Flag (SARS-CoV-2)) is on record?
Answer: The binding was “binds”.
